## Screening data, single-dose tests

Source: ChEMBL document CHEMBL3988442, “University of Dundee, Small-Polar-MMV Screening Library” (2021).

Results are given as percent effect. The controls that fix the scale are not given in the record; negative values are as filed. This is an unselected part of the compounds tested. Two or more numbers in one place are separate tests of the same structure; such repeats can differ widely.

Mtb cholesterol medium: 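Whole-cell growth test on Mycobacterium tuberculosis, read after 4 days in a medium based on cholesterol and the lipid DPPC; the read-out is not stated. Tested at 50 µM. The record gives no direction; compounds that gave an IC50 in retests scored well above the rest, so higher reads as more growth inhibition. About 69,000 compounds were tested under these conditions; 0.54% (about 370) showed 50% or more at least once.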
Mtb glucose medium: 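Growth of Mycobacterium tuberculosis over 3 days (7H9 medium with glucose and tyloxapol); the read-out is not stated. Compounds at 50 µM. Direction is inferred from retests: higher values go with more growth inhibition. About 69,000 compounds were tested under these conditions; 1.1% (about 760) showed 50% or more at least once.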

SMILES: COc1ccc(C(C)N(C)Cc2nc3c(cnn3C)c(=O)[nH]2)cc1 (centres unmarked)
Mtb cholesterol medium: -3.82%
Mtb glucose medium: -17.98%

SMILES: Cc1nc(C(=O)N2CCCC2c2cnn(C)c2)ccc1C#N (centres unmarked)
Mtb cholesterol medium: -33.92%
Mtb glucose medium: -9.751%

SMILES: CCOc1ccc(Cl)c(C(=O)NC)n1
Mtb cholesterol medium: 0.4741%
Mtb glucose medium: 13.83%

SMILES: CC(Oc1ccc(F)cc1F)C(=O)N1CCC2(CC1)CC(=O)N(C)C2 (centres unmarked)
Mtb cholesterol medium: -13.92%
Mtb glucose medium: -17.79%

SMILES: Cc1c(CN2CCCC2(C)C(=O)NC2CCCC2)cnn1C (centres unmarked)
Mtb cholesterol medium: -8.558%
Mtb glucose medium: -2.108%

SMILES: CCOCCS(=O)(=O)N(CC)Cc1ccc(Cl)s1
Mtb cholesterol medium: 15.45%
Mtb glucose medium: 22.85%

SMILES: Cc1ccccc1CC(=O)N1C[C@@H](O)[C@H](N2CCOCC2)C1
Mtb cholesterol medium: -0.1118%
Mtb glucose medium: -0.2576%

SMILES: COC(=O)c1ccc(Cn2nc(C)cc2C)c(F)c1
Mtb cholesterol medium: -4.822%
Mtb glucose medium: 12.93%

SMILES: Cc1ccc(S(=O)(=O)N2CCOCC2C#N)c(F)c1 (centres unmarked)
Mtb cholesterol medium: -15%
Mtb glucose medium: 5.009%

SMILES: CC(CO)NC(=O)Nc1ccc(Cl)cc1OCC(F)(F)F (centres unmarked)
Mtb cholesterol medium: 12.27%
Mtb glucose medium: 43.06%

SMILES: Cc1cc(CN2CCc3nc(C(C)C)nc(O)c3CC2)c(C)s1
Mtb cholesterol medium: 54.36%
Mtb glucose medium: 8.533%

SMILES: CCn1cnnc1C1CCN(C(=O)c2cnn(C(C)(C)C)c2)CC1
Mtb cholesterol medium: -4.93%
Mtb glucose medium: 14.43%

SMILES: Cc1nnc(NC(=O)CN2CCc3c(nc(C(C)C)n3C)C2)s1
Mtb cholesterol medium: 12.78%
Mtb glucose medium: 1.698% & -11.76%

SMILES: COc1ccccc1OC1(C(=O)O)CCN(c2ncnc(C)c2C)CC1
Mtb cholesterol medium: -36.69%
Mtb glucose medium: -42.53%

SMILES: CNC(=O)C(NC(C)=O)c1ccc(F)c(F)c1 (centres unmarked)
Mtb cholesterol medium: -8.207%
Mtb glucose medium: 1.143% & -57.64%

SMILES: Cc1nc(N2CCOCC2)nc2c1COCC21CCN(CC2CC2)C1.O=C(O)C(F)(F)F (centres unmarked)
Mtb cholesterol medium: -10.85% & -14.69%
Mtb glucose medium: -4.918% & -26.48%

SMILES: CCn1cc(C(=O)NCCN2CCCc3ccccc32)c(C)n1
Mtb cholesterol medium: 15.24%
Mtb glucose medium: -9.767%

SMILES: CCN1CC2(CC1=O)CN(C(=O)c1ccco1)CCN(C(=O)C(C)C)C2 (centres unmarked)
Mtb cholesterol medium: 16.36%
Mtb glucose medium: -31.22%

SMILES: CCc1cnc(N)nc1NCCc1ccc(OC)cc1OC
Mtb cholesterol medium: -22.49% & 0.4567%
Mtb glucose medium: 9.833% & -6.096%

SMILES: O=S(=O)(Nc1ccc(N2CCOCC2)cc1)c1cccc(F)c1
Mtb cholesterol medium: 4.575%
Mtb glucose medium: 1.57% & -0.4142%

SMILES: CCC1CN(C(=O)c2ncccc2O)CCC(=O)N1Cc1ccccc1 (centres unmarked)
Mtb cholesterol medium: 15.65% & -0.4418%
Mtb glucose medium: 27.62%

SMILES: O=C(Cc1ccccc1Cl)Nc1cc(N2CCCC2)ncn1
Mtb cholesterol medium: 3.044%
Mtb glucose medium: 18.74%

SMILES: [H][C@]12CC[C@]([H])(CN(C3CCOCC3)C1)N(Cc1cnc(NCCC)nc1)C2
Mtb cholesterol medium: -4.416%
Mtb glucose medium: 4.662%

SMILES: CC(C)NC(=O)CS(=O)(=O)c1cc2c(cc1Cl)OCCO2
Mtb cholesterol medium: -24.56%
Mtb glucose medium: 1.895%

SMILES: CC(COc1ccccc1F)NC(=O)N[C@@H]1C=C[C@H](CO)C1 (some centres unmarked)
Mtb cholesterol medium: 9.778%
Mtb glucose medium: 20.01% & 6.33%

SMILES: COC(=O)c1ccc(Cn2cccc(C(F)(F)F)c2=O)c(OC)c1
Mtb cholesterol medium: -4.578%
Mtb glucose medium: -18.16% & -8.324%

SMILES: CCOc1nc2cnccc2n(CC(=O)NCc2ccco2)c1=O
Mtb cholesterol medium: 1.542%
Mtb glucose medium: 19.62%

SMILES: COC(=O)CCc1c(C)nn(-c2nc(C)cc(=O)[nH]2)c1C
Mtb cholesterol medium: 22.87%
Mtb glucose medium: 46.98%

SMILES: COCCN(Cc1ccsc1)C(=O)c1c(C)cc(C)[nH]c1=O
Mtb cholesterol medium: -3.06%
Mtb glucose medium: 7.064%

SMILES: CSC(C)C(=O)NCc1ccc(-n2cncn2)nc1 (centres unmarked)
Mtb cholesterol medium: 20.29%
Mtb glucose medium: 9.498%

2 of the entries, repeated:

| SMILES | Mtb cholesterol medium | Mtb glucose medium |
|---|---|---|
| `Cc1ccccc1CC(=O)N1C[C@@H](O)[C@H](N2CCOCC2)C1` | -0.1118% | -0.2576% |
| `Cc1cc(CN2CCc3nc(C(C)C)nc(O)c3CC2)c(C)s1` | 54.36% | 8.533% |